Data reported in US12318370B2, “Processes for preparing solid state forms” (Varda Space Industries, Inc., priority 2022, dated 2025).

assay: Solubility of ritonavir solid forms in 0.1 N HCl by UV/VIS, with XRPD of recovered solids; type: physicochemical; conditions: ambient, UV/VIS at 247 nm, supernatant diluted 10-fold

Structure (SMILES)	Absorbance after 48 h
CC(C)c1nc(CN(C)C(=O)N[C@H](C(=O)N[C@@H](Cc2ccccc2)C[C@H](O)[C@H](Cc2ccccc2)NC(=O)OCc2cncs2)C(C)C)cs1 (single isomer, unassigned) [Amorphous, 10-hydroxy-2-methyl-5-(1-methylethyl)-1-[2-(1-methylethyl)-4-thiazolyl]-3,6-dioxo-8,11-bis(phenylmethyl)-2,4,7,12-tetraazatridecan-13-oic acid, 5-thiazolylmethyl ester, [SS-(5R*,8R*,10R*,1R*)]]	1.43
CC(C)c1nc(CN(C)C(=O)N[C@H](C(=O)N[C@@H](Cc2ccccc2)C[C@H](O)[C@H](Cc2ccccc2)NC(=O)OCc2cncs2)C(C)C)cs1 (single isomer, unassigned) [Form I, 10-hydroxy-2-methyl-5-(1-methylethyl)-1-[2-(1-methylethyl)-4-thiazolyl]-3,6-dioxo-8,11-bis(phenylmethyl)-2,4,7,12-tetraazatridecan-13-oic acid, 5-thiazolylmethyl ester, [SS-(5R*,8R*,10R*,1R*)]]	0.30
CC(C)c1nc(CN(C)C(=O)N[C@H](C(=O)N[C@@H](Cc2ccccc2)C[C@H](O)[C@H](Cc2ccccc2)NC(=O)OCc2cncs2)C(C)C)cs1 (single isomer, unassigned) [Form II, 10-hydroxy-2-methyl-5-(1-methylethyl)-1-[2-(1-methylethyl)-4-thiazolyl]-3,6-dioxo-8,11-bis(phenylmethyl)-2,4,7,12-tetraazatridecan-13-oic acid, 5-thiazolylmethyl ester, [SS-(5R*,8R*,10R*,1R*)]]	0.12
CC(C)c1nc(CN(C)C(=O)N[C@H](C(=O)N[C@@H](Cc2ccccc2)C[C@H](O)[C@H](Cc2ccccc2)NC(=O)OCc2cncs2)C(C)C)cs1 (single isomer, unassigned) [Form III, 10-hydroxy-2-methyl-5-(1-methylethyl)-1-[2-(1-methylethyl)-4-thiazolyl]-3,6-dioxo-8,11-bis(phenylmethyl)-2,4,7,12-tetraazatridecan-13-oic acid, 5-thiazolylmethyl ester, [SS-(5R*,8R*,10R*,1R*)]]	1.08
